Five molecules from publication PMC4879633 can be followed below.

The chains behind the UniProt entries cited, without tags or fusion partners.
UniProt P49674: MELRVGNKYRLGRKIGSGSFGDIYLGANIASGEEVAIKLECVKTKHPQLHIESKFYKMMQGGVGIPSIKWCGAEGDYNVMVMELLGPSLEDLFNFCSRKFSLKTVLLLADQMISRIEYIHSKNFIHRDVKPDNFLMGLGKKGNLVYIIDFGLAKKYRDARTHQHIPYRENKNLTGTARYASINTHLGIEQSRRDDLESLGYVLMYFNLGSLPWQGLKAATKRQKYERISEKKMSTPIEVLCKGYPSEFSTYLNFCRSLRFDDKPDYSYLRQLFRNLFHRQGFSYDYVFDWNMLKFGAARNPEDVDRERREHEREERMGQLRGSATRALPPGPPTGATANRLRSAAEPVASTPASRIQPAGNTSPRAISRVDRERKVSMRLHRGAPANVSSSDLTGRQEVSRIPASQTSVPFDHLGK
UniProt P13647: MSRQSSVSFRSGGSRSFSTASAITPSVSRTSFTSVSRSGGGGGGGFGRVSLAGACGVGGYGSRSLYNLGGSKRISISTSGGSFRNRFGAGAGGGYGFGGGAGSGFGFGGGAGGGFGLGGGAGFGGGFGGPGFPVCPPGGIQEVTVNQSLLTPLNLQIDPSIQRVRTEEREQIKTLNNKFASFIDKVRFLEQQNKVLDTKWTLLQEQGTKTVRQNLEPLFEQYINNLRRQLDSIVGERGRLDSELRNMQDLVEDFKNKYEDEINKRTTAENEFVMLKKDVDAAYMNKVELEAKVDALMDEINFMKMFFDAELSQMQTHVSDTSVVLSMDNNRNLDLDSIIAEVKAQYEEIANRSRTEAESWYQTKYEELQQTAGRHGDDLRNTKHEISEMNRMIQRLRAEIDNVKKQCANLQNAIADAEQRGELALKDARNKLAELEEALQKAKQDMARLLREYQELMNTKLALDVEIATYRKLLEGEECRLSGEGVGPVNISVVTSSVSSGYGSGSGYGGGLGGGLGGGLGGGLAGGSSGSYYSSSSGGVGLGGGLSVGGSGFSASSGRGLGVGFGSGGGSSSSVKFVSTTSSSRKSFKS
UniProt Q04695: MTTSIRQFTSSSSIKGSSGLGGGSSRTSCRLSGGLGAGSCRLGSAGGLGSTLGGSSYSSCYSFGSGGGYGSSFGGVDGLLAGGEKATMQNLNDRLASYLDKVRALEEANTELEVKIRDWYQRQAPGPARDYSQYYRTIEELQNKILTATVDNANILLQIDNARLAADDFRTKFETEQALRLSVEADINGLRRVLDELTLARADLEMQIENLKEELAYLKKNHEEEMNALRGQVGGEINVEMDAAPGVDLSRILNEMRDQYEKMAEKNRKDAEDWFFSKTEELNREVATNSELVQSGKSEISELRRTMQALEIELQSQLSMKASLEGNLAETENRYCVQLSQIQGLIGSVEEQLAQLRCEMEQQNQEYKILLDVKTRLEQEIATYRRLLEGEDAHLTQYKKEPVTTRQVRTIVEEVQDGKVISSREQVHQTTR

The target of one experiment is T1, FAM83H-FLAG (human) (UniProt Q6ZRV2).
T1 sequence: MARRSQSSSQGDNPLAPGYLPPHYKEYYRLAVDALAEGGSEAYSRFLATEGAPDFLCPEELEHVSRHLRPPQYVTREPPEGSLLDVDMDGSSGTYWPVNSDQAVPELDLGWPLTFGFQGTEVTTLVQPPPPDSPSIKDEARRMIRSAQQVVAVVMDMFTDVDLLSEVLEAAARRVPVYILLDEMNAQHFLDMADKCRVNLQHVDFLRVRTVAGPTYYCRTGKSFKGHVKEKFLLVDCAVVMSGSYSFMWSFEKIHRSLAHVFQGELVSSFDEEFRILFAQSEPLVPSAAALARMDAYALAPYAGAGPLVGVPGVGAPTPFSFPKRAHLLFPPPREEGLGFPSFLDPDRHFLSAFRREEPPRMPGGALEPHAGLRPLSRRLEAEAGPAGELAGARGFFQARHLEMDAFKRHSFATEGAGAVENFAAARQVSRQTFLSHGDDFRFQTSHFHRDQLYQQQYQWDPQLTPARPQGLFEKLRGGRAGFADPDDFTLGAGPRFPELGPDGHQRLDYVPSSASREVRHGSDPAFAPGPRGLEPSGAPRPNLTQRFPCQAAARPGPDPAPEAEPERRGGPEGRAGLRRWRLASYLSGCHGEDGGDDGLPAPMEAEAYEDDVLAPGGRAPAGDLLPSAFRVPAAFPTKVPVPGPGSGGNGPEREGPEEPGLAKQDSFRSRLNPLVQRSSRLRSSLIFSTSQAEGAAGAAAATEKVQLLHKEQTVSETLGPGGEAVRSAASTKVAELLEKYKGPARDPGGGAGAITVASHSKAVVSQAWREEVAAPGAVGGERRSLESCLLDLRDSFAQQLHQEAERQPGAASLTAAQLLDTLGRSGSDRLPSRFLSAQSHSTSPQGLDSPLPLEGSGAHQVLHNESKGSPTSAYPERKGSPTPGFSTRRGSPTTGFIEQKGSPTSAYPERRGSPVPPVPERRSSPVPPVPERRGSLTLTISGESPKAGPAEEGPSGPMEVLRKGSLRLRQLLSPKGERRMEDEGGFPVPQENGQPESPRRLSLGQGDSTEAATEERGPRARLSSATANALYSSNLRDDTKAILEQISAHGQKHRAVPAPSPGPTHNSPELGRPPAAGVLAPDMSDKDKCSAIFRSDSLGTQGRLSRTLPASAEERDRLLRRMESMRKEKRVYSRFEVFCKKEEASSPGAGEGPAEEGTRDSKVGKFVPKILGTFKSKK
Nature of the experiment: co-IP; anti-FLAG antibody (M2) cross-linked to Protein G Dynabeads; lysates of transfected HAM2 cells in PBS with 1% Triton X-100, sonicated, 100,000 x g supernatant; 4 °C for 3 h; Western blotting of immunoprecipitates. On the technique in general: A western blot detects proteins with antibodies after separation by electrophoresis.

The target of experiment [1] is T2, FAM83H-FLAG (human), Q6ZRV2.
T2 chain: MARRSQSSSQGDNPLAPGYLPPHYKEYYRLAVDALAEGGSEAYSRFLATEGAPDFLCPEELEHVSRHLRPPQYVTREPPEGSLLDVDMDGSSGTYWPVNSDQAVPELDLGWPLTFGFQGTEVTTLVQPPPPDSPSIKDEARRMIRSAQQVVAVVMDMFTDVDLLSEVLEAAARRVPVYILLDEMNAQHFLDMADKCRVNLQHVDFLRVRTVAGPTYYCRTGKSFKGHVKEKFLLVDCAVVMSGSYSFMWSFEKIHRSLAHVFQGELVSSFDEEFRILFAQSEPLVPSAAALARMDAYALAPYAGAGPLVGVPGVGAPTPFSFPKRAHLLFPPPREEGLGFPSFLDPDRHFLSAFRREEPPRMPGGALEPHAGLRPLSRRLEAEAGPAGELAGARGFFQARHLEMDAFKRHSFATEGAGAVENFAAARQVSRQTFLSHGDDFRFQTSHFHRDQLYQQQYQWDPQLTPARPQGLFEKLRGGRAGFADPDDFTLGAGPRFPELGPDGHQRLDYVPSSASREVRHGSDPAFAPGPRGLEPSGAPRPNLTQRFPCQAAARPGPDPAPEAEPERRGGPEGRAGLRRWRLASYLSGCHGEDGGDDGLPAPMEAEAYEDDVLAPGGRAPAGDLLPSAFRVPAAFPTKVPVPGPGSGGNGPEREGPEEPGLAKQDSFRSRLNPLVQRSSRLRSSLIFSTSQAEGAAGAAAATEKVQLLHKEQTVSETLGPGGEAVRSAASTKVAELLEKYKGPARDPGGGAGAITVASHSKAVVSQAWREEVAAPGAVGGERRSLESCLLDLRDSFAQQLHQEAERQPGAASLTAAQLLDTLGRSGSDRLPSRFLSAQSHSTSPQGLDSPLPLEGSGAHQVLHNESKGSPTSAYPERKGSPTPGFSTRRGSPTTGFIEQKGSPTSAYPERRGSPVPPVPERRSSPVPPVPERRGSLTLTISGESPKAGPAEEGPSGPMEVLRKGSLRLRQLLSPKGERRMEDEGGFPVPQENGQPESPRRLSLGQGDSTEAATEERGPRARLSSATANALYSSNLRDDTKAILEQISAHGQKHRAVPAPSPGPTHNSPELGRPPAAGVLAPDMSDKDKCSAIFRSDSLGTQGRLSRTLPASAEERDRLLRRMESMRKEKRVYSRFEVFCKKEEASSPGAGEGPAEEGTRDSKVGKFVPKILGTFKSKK
The description is as above. The following applies: remark: other sources report otherwise.

These are yes or no findings as the source states them, for the method shown. Binding seen in cells or lysates may run through a third protein. Some entries that bind do so weakly or less than the wild type. Tags and fused reporters may be left off the sequences shown.

In the case of “casein kinase I epsilon (CK-1ε) (from UniProt P49674 1-416) (enzyme)”, the binding entry with FAM83H-FLAG (human) was “binds”.
Consider keratin 5 (from UniProt P13647 1-590), for which the binding result in the experiment with FAM83H-FLAG (human) was “binds”.
As for keratin 17 (from UniProt Q04695 1-432), the binding result with FAM83H-FLAG (human) is “binds”.

B1: keratin 14, P02533 1-472 (protein)
chain: MTTCSRQFTSSSSMKGSCGIGGGIGGGSSRISSVLAGGSCRAPSTYGGGLSVSSSRFSSGGACGLGGGYGGGFSSSSSSFGSGFGGGYGGGLGAGLGGGFGGGFAGGDGLLVGSEKVTMQNLNDRLASYLDKVRALEEANADLEVKIRDWYQRQRPAEIKDYSPYFKTIEDLRNKILTATVDNANVLLQIDNARLAADDFRTKYETELNLRMSVEADINGLRRVLDELTLARADLEMQIESLKEELAYLKKNHEEEMNALRGQVGGDVNVEMDAAPGVDLSRILNEMRDQYEKMAEKNRKDAEEWFFTKTEELNREVATNSELVQSGKSEISELRRTMQNLEIELQSQLSMKASLENSLEETKGRYCMQLAQIQEMIGSVEEQLAQLRCEMEQQNQEYKILLDVKTRLEQEIATYRRLLEGEDAHLSSSQFSSGSQSSRDVTSSSRQIRTKVMDVHDGKVVSTHEQVLRTKN
For B1, the binding entry in experiment [1] is on record as “binds”.

B2: keratin 18 (protein, UniProt P05783 1-430)
chain: MSFTTRSTFSTNYRSLGSVQAPSYGARPVSSAASVYAGAGGSGSRISVSRSTSFRGGMGSGGLATGIAGGLAGMGGIQNEKETMQSLNDRLASYLDRVRSLETENRRLESKIREHLEKKGPQVRDWSHYFKIIEDLRAQIFANTVDNARIVLQIDNARLAADDFRVKYETELAMRQSVENDIHGLRKVIDDTNITRLQLETEIEALKEELLFMKKNHEEEVKGLQAQIASSGLTVEVDAPKSQDLAKIMADIRAQYDELARKNREELDKYWSQQIEESTTVVTTQSAEVGAAETTLTELRRTVQSLEIDLDSMRNLKASLENSLREVEARYALQMEQLNGILLHLESELAQTRAEGQRQAQEYEALLNIKVKLEAEIATYRRLLEDGEDFNLGDALDSSNSMQTIQKTTTRRIVDGKVVSETNDTKVLRH
B2: the binding result with FAM83H-FLAG (human) is listed as “binds”.
